The supplement of paper PMC10849652
The list shows a part of the results.

Amino acid sequences for entries named in this document (tags omitted). A change or cut given only in a name is not applied to a line headed by its entry.
UniProt P78540: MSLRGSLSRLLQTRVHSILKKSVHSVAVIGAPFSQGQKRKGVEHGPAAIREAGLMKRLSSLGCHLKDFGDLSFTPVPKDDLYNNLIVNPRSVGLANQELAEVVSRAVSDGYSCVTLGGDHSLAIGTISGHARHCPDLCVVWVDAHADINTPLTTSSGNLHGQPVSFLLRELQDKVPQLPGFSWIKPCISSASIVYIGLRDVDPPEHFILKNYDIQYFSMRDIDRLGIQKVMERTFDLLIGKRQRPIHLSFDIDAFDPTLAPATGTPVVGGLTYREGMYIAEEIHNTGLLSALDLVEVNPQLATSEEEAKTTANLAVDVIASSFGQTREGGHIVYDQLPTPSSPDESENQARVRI
UniProt Q8N6H7: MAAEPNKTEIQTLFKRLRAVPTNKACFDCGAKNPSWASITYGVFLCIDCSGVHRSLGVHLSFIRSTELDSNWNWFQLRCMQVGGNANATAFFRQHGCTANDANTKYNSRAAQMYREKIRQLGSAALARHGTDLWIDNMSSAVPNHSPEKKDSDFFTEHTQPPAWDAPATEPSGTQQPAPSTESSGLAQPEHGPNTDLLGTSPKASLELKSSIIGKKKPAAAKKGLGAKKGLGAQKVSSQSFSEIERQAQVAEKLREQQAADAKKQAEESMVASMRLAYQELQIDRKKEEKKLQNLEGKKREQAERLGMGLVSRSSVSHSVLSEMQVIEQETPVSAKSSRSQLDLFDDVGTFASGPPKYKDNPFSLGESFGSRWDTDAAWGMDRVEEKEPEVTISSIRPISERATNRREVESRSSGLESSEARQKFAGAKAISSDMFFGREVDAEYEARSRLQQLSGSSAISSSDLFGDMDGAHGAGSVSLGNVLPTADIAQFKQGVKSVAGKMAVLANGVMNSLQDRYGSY
UniProt Q07960: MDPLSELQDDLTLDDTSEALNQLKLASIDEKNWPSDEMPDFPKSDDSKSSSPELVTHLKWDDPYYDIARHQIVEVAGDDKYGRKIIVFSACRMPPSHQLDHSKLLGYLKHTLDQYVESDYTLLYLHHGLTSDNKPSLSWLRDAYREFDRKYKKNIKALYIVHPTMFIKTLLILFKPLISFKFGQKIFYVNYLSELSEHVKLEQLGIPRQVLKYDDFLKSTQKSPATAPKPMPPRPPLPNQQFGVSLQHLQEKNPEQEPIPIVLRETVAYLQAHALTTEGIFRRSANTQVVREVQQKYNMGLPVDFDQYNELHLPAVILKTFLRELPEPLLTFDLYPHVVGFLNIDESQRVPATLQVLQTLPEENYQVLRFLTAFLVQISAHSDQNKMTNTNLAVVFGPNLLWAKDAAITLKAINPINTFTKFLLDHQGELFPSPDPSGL
UniProt P52565: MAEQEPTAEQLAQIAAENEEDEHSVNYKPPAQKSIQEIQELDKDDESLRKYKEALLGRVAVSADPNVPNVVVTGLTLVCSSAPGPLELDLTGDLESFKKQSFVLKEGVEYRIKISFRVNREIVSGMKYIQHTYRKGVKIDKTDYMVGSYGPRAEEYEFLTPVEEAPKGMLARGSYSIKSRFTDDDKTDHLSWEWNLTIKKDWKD
UniProt Q8N6T3: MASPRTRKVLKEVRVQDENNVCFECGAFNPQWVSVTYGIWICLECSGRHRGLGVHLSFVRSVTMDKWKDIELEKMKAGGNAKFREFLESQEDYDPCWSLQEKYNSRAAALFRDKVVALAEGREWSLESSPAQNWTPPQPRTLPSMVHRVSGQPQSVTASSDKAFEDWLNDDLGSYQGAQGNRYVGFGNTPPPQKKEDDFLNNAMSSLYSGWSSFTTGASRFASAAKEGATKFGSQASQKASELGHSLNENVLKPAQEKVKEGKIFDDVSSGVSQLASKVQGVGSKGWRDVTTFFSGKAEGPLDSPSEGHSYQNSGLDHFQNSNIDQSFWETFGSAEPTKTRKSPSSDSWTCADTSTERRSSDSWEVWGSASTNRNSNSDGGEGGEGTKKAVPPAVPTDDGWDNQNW
UniProt P53365: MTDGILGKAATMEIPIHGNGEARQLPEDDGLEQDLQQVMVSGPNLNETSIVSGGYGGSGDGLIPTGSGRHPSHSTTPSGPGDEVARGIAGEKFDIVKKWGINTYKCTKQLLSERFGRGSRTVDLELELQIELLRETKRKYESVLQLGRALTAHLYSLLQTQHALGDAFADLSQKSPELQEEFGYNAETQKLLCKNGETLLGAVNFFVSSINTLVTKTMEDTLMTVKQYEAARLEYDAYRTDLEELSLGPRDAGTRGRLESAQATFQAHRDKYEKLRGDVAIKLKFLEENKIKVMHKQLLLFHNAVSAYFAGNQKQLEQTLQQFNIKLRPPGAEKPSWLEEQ
UniProt P02649, whole entry, looked up: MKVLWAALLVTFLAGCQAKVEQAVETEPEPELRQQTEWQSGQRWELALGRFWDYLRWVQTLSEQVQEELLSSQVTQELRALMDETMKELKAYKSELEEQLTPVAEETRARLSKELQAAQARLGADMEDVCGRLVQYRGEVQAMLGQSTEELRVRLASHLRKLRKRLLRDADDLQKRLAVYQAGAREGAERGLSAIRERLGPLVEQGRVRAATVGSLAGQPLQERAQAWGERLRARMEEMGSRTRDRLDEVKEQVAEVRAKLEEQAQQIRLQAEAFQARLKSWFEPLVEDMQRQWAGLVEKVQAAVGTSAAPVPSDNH
UniProt P49407: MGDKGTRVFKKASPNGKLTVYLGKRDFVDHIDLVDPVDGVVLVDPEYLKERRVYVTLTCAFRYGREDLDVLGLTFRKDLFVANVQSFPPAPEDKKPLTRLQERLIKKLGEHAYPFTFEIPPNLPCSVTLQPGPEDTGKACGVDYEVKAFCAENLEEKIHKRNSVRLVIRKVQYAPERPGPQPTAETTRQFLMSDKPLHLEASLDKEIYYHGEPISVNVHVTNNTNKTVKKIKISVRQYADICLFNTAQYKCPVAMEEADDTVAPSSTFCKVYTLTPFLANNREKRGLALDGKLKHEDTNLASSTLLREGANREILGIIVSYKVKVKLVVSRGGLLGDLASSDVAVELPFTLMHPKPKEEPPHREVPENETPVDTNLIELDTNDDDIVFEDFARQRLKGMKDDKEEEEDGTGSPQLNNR
UniProt Q13510, whole entry, looked up: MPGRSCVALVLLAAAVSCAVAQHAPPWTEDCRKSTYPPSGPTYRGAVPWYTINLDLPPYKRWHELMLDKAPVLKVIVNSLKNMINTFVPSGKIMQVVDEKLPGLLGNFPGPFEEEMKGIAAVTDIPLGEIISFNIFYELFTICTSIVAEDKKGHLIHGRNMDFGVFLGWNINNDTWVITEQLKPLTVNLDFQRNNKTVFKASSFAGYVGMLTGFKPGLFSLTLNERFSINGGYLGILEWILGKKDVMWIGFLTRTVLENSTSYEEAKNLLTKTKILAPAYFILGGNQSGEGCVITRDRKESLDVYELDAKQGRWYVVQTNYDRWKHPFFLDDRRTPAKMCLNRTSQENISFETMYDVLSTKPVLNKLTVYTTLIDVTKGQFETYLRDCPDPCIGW
UniProt Q0VD83: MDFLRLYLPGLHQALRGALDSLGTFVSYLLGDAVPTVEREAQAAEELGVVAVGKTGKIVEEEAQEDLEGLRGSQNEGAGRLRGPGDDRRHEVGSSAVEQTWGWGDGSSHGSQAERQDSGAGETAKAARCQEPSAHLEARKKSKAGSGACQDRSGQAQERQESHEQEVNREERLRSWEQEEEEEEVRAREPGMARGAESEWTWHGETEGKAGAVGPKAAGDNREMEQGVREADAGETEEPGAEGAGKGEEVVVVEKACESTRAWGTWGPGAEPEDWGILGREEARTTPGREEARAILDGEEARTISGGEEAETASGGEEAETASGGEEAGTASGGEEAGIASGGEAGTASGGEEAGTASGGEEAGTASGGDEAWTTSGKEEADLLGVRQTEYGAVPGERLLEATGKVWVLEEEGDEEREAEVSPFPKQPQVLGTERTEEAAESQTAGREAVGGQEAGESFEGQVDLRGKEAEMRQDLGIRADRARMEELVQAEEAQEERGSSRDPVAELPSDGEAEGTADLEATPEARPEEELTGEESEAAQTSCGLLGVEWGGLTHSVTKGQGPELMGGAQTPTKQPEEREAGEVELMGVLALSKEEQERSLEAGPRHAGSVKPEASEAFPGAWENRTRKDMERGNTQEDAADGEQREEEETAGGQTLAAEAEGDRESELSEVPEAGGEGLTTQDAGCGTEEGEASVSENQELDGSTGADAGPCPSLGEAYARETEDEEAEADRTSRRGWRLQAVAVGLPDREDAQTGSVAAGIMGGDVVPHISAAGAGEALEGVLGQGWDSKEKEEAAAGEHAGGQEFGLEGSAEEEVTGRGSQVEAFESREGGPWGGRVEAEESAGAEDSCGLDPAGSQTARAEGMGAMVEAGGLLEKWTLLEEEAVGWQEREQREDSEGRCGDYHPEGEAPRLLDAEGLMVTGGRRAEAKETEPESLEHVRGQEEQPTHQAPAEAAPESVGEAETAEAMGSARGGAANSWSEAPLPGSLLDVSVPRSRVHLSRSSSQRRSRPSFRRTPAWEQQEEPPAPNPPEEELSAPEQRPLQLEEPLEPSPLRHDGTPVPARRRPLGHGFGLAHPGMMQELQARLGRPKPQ
UniProt Q68EM7: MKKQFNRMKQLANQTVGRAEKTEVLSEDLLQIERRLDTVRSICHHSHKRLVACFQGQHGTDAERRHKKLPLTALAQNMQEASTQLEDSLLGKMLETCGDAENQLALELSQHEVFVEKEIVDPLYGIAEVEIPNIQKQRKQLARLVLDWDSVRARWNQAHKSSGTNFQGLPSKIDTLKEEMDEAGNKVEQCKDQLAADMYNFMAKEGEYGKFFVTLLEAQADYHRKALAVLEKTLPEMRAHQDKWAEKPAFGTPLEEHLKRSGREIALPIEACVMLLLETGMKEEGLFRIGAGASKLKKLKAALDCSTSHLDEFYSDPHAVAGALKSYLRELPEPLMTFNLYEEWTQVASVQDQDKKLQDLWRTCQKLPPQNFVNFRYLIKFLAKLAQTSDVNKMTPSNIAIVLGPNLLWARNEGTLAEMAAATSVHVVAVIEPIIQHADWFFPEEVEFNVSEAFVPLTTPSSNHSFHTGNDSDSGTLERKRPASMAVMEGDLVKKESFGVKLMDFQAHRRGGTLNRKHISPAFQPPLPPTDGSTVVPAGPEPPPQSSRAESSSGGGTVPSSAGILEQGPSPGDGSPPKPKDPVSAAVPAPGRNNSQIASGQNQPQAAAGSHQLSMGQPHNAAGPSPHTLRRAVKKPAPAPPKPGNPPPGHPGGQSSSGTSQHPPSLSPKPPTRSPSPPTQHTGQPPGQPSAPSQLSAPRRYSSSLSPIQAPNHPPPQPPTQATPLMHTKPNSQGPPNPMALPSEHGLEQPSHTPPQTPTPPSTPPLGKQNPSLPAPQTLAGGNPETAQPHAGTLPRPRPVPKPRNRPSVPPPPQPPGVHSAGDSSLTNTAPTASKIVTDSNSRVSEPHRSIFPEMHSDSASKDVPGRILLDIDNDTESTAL
UniProt Q92747, whole entry, looked up: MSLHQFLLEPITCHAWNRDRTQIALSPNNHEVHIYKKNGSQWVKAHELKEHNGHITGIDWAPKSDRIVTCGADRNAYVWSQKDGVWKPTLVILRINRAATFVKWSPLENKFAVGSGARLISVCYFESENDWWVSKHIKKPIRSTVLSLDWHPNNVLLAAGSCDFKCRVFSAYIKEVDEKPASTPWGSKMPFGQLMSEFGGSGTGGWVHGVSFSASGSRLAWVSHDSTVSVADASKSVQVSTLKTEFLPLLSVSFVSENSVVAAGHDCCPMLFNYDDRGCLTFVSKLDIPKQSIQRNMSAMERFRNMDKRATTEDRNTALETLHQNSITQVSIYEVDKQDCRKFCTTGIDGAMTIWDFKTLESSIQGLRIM
UniProt Q99856: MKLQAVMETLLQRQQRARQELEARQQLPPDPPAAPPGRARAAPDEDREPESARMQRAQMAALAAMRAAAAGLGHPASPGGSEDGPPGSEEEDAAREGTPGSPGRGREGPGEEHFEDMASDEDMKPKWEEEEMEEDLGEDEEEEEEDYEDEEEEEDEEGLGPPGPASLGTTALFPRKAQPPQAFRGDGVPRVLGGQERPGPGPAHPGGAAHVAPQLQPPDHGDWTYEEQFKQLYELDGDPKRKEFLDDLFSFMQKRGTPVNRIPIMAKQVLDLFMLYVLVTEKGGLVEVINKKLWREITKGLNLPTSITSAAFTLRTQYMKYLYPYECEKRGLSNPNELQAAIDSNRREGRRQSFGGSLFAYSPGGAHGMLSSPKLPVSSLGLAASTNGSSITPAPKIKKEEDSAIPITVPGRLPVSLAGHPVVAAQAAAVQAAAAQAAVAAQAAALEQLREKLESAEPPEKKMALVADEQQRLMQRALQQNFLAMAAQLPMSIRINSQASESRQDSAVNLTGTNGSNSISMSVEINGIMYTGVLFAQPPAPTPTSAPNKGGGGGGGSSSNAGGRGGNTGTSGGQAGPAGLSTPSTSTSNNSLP

Experiments:
Test in all cases: log2 fold change, soluble protein after heating vs DMSO (PISA); higher = thermal stabilisation; K562 lysate, 10 uM; active = over 0.2 and 3.5 SD of the protein, either way, in both replicates (recomputed)
lapatinib = compound: CS(=O)(=O)CCNCc1ccc(-c2ccc3ncnc(Nc4ccc(OCc5cccc(F)c5)c(Cl)c4)c3c2)o1 [lapatinib]
Summary of the method: (§1)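 K562 pellets were dounce-homogenised in PBS pH 7.4 containing 1 mM MgCl2, and the crude extract, at 1 mg/mL protein, was exposed to 10 μM compound for 30 min. Aliquots were heated for 3 min across 48°C-58°C, pooled, brought to 0.5% NP-40 at 4°C and spun at 21,000xg for 90 min, with the supernatant taken as soluble protein. TMTpro 16plex LC-MS/MS with equalised channel sums quantified that protein. Values are log-two fold changes in thermal stability relative to solvent controls, taken from duplicates.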

pictilisib = compound: CS(=O)(=O)N1CCN(Cc2cc3nc(-c4cccc5[nH]ncc45)nc(N4CCOCC4)c3s2)CC1 [pictilisib]
Summary of the method: as §1

crizotinib = compound: C[C@@H](Oc1cc(-c2cnn(C3CCNCC3)c2)cnc1N)c1c(Cl)ccc(F)c1Cl [crizotinib]
Summary of the method: as §1

[1] = compound: C[C@H](C1=CC=C(C=C1)C(=O)NC2=C3C=CNC3=NC=C2)N
Summary of the method: as §1

duvelisib = compound: C[C@H](Nc1ncnc2nc[nH]c12)c1cc2cccc(Cl)c2c(=O)n1-c1ccccc1 [duvelisib]
Summary of the method: as §1

gandotinib = compound: Cc1cc(Nc2cc(CN3CCOCC3)c3nc(C)c(Cc4ccc(Cl)cc4F)n3n2)n[nH]1 [gandotinib]
Summary of the method: as §1

tozasertib = compound: Cc1cc(Nc2cc(N3CCN(C)CC3)nc(Sc3ccc(NC(=O)C4CC4)cc3)n2)n[nH]1 [tozasertib]
Summary of the method: as §1

doramapimod = compound: Cc1ccc(-n2nc(C(C)(C)C)cc2NC(=O)Nc2ccc(OCCN3CCOCC3)c3ccccc23)cc1 [doramapimod]
Summary of the method: as §1

bafetinib = compound: Cc1ccc(NC(=O)c2ccc(CN3CC[C@H](N(C)C)C3)c(C(F)(F)F)c2)cc1Nc1nccc(-c2cncnc2)n1 [bafetinib]
Summary of the method: as §1

[2] = compound: Cc1cccc(CC(=O)N2CCc3c2ccc(-c2cn(C)c4ncnc(N)c24)c3F)n1
Summary of the method: as §1

nilotinib = compound: Cc1cn(-c2cc(NC(=O)c3ccc(C)c(Nc4nccc(-c5cccnc5)n4)c3)cc(C(F)(F)F)c2)cn1 [nilotinib]
Summary of the method: as §1

[3] = compound: Cc1nc(Nc2n[nH]c3c2CN(C(=O)N[C@H](CN(C)C)c2ccccc2)C3(C)C)c2sccc2n1
Summary of the method: as §1

dasatinib = compound: Cc1nc(Nc2ncc(C(=O)Nc3c(C)cccc3Cl)s2)cc(N2CCN(CCO)CC2)n1 [dasatinib]
Summary of the method: as §1

[4] = compound: Cc1ncc(-c2ccnc(Nc3ccc(S(C)(=O)=O)cc3)n2)n1C(C)C
Summary of the method: as §1

[5] = compound: Cn1cc(-c2ccc3c(c2)CCN3C(=O)Cc2cccc(C(F)(F)F)c2)c2c(N)ncnc21
Summary of the method: as §1

quisinostat = compound: Cn1cc(CNCC2CCN(c3ncc(C(=O)NO)cn3)CC2)c2ccccc21 [quisinostat]
Summary of the method: as §1

tipifarnib = compound: Cn1cncc1[C@@](N)(c1ccc(Cl)cc1)c1ccc2c(c1)c(-c1cccc(Cl)c1)cc(=O)n2C [tipifarnib]
Summary of the method: as §1

[6] = compound: NC(=O)Nc1cc(-c2cccc(F)c2)sc1C(=O)N[C@H]1CCCNC1
Summary of the method: as §1

[7] = compound: NC(=O)c1cnc(N[C@@H]2CCCC[C@@H]2N)nc1Nc1cccc(-n2nccn2)c1
Summary of the method: as §1

[8] = compound: NC1(c2ccc(-c3nc4ccn5c(=O)[nH]nc5c4cc3-c3ccccc3)cc2)CCC1
Summary of the method: as §1

Target	log2 fold change (lapatinib)	log2 fold change (pictilisib)	log2 fold change (crizotinib)	log2 fold change [1]	log2 fold change (duvelisib)	log2 fold change (gandotinib)	log2 fold change (tozasertib)	log2 fold change (doramapimod)	log2 fold change (bafetinib)	log2 fold change [2]	log2 fold change (nilotinib)	log2 fold change [3]	log2 fold change (dasatinib)	log2 fold change [4]	log2 fold change [5]	log2 fold change (quisinostat)	log2 fold change (tipifarnib)	log2 fold change [6]	log2 fold change [7]	log2 fold change [8]
ARG2 (UniProt P78540)	inactive: 0.004	inactive: -0.056	inactive: -0.031	inactive: -0.012	inactive: 0.069	inactive: 0.044	inactive: -0.01	inactive: -0.006	inactive: -0.029	inactive: -0.014	inactive: -0.045	inactive: 0.008	inactive: -0.024	inactive: -0.035	inactive: 0.002	inactive: -0.071	inactive: -0.057	inactive: 0.021	inactive: -0.002	inactive: -0.015
ARFGAP2 (UniProt Q8N6H7)	inactive: 0.045	inactive: 0	inactive: 0.028	inactive: -0.023	inactive: -0.026	inactive: 0.114	inactive: 0.024	inactive: 0.09	inactive: -0.046	inactive: -0.006	inactive: -0.005	inactive: 0.009	inactive: 0.013	inactive: -0.044	inactive: 0.012	inactive: -0.033	inactive: -0.062	inactive: -0.024	inactive: -0.023	inactive: 0.02
ARHGAP1 (UniProt Q07960)	inactive: -0.003	inactive: 0.018	inactive: 0.071	inactive: -0.037	inactive: -0.003	inactive: 0.05	inactive: -0.049	inactive: -0.009	inactive: 0.014	inactive: -0.02	inactive: 0.007	inactive: 0.012	inactive: 0.049	inactive: -0.029	inactive: 0.014	inactive: 0.069	inactive: 0.038	inactive: -0.008	inactive: -0.026	inactive: 0.006
ARHGDIA (UniProt P52565)	inactive: -0.028	inactive: 0.018	inactive: 0.009	inactive: -0.163	inactive: -0.022	inactive: 0.052	inactive: -0.001	inactive: 0.001	inactive: 0.008	inactive: 0.012	inactive: -0.018	inactive: -0.031	inactive: 0.006	inactive: -0.02	inactive: -0.007	inactive: -0.022	inactive: 0.013	inactive: -0.006	inactive: -0.001	inactive: -0.023
ARFGAP1 (UniProt Q8N6T3)	inactive: 0.002	inactive: 0.175	inactive: 0.031	inactive: -0.077	inactive: -0.054	active: 1.08	inactive: -0.011	inactive: 0.202	inactive: -0.157	inactive: 0.202	inactive: 0.159	inactive: 0.1	inactive: -0.03	inactive: -0.016	inactive: -0.043	inactive: -0.004	active: -0.475	inactive: 0.063	inactive: -0.032	inactive: -0.111
ARFIP2 (UniProt P53365)	inactive: 0.034	inactive: -0.062	inactive: 0.025	inactive: 0.016	inactive: 0.017	inactive: -0.043	inactive: 0.016	inactive: -0.001	inactive: 0.016	inactive: -0.029	inactive: 0.008	inactive: 0.02	inactive: -0.052	inactive: -0.003	inactive: -0.006	inactive: -0.085	inactive: 0.03	inactive: 0.046	inactive: 0.025	inactive: 0.016
APOE (UniProt P02649)	inactive: -0.036	inactive: -0.068	inactive: 0.017	inactive: 0.068	inactive: 0.029	inactive: -0.062	inactive: -0.061	inactive: -0.002	inactive: -0.036	inactive: -0.02	inactive: 0	inactive: 0.004	inactive: 0.022	inactive: 0.057	inactive: 0.009	inactive: -0.017	inactive: -0.02	inactive: 0.077	inactive: 0.017	inactive: -0.009
ARRB1 (UniProt P49407)	inactive: 0.011	inactive: 0.002	inactive: 0.004	inactive: -0.061	inactive: 0	inactive: 0.001	inactive: 0.002	inactive: -0.025	inactive: 0.032	inactive: 0.006	inactive: -0.035	inactive: -0.025	inactive: 0.015	inactive: 0.051	inactive: -0.027	inactive: 0.01	inactive: 0.055	inactive: -0.004	inactive: -0.012	inactive: 0.017
ARPC2 (UniProt O15144)	inactive: -0.019	inactive: -0.001	inactive: 0.019	inactive: -0.049	inactive: 0.02	inactive: 0.018	inactive: -0.016	inactive: 0.015	inactive: 0.002	inactive: -0.025	inactive: -0.031	inactive: 0.013	inactive: 0.019	inactive: -0.02	inactive: 0.006	inactive: -0.036	inactive: 0.007	inactive: -0.002	inactive: -0.014	inactive: -0.015
APOL2 (UniProt J3KQL8)	inactive: 0.059	inactive: -0.013	inactive: 0.035	inactive: -0.016	inactive: -0.001	inactive: -0.3	inactive: -0.128	inactive: -0.134	inactive: 0.146	inactive: 0.022	inactive: 0.034	inactive: -0.07	inactive: 0.036	inactive: 0.128	inactive: -0.021	inactive: 0.156	inactive: -0.124	inactive: 0.012	inactive: 0.048	inactive: 0.028
ASAH1 isoform 2 (UniProt Q13510)	inactive: 0.022	inactive: 0.073	inactive: -0.02	inactive: -0.125	inactive: 0.016	inactive: 0.156	inactive: -0.095	inactive: -0.032	inactive: -0.045	inactive: -0.026	inactive: 0.041	inactive: 0.061	inactive: 0.017	inactive: -0.068	inactive: 0.009	inactive: -0.109	inactive: -0.021	inactive: 0.019	inactive: -0.071	inactive: 0.032
APOBR (UniProt Q0VD83)	inactive: -0.024	inactive: -0.015	inactive: 0.014	inactive: 0.008	inactive: 0.072	inactive: -0.049	inactive: 0.037	inactive: -0.022	inactive: -0.002	inactive: -0.018	inactive: -0.02	inactive: -0.029	inactive: -0.009	inactive: -0.005	inactive: 0.01	inactive: -0.011	inactive: -0.021	inactive: -0.028	inactive: 0.002	inactive: -0.005
ARHGAP17 (UniProt Q68EM7)	inactive: 0.004	inactive: -0.015	inactive: -0.047	inactive: 0.03	inactive: 0.006	inactive: -0.122	inactive: 0.071	inactive: 0.031	inactive: -0.005	inactive: -0.045	inactive: 0.012	inactive: -0.006	inactive: -0.031	inactive: -0.019	inactive: 0.008	inactive: -0.081	inactive: -0.046	inactive: 0.023	inactive: -0.005	inactive: 0.005
ARPC1A (UniProt Q92747)	inactive: -0.003	inactive: -0.032	inactive: 0.044	inactive: -0.108	inactive: 0.02	inactive: 0.047	inactive: -0.062	inactive: 0.005	inactive: -0.056	inactive: 0.02	inactive: -0.007	inactive: 0.037	inactive: 0.048	inactive: 0.049	inactive: 0.027	inactive: 0.023	inactive: 0	inactive: 0.007	inactive: 0.001	inactive: -0.025
ARHGEF12 (UniProt Q9NZN5)	inactive: -0.008	inactive: -0.011	inactive: 0.021	inactive: -0.151	inactive: 0.02	inactive: 0.065	inactive: -0.011	inactive: 0.021	inactive: -0.042	inactive: 0.119	inactive: -0.032	inactive: 0.012	inactive: -0.031	inactive: 0.023	inactive: 0.024	inactive: 0.009	inactive: -0.047	inactive: -0.016	inactive: 0.03	inactive: 0.04
ARID3A (UniProt Q99856)	inactive: 0.013	inactive: -0.033	inactive: 0	inactive: 0.074	inactive: -0.024	inactive: -0.122	inactive: -0.044	inactive: -0.014	inactive: -0.031	inactive: -0.002	inactive: 0.008	inactive: 0.005	inactive: -0.037	inactive: 0.002	inactive: 0.008	inactive: -0.004	inactive: 0.016	inactive: 0.018	inactive: 0.07	inactive: 0.033
